Test results from patent US20170355757A1.
Where a chain is given by its changes, count along the chain named. Results are given in words; binding and its absence hold for the method and conditions named. Some results given as binding are weak or reduced against the parent protein; the word gives no strength.

The chains behind the UniProt entries cited, without tags or fusion partners. Where a name states a change or a piece, a line headed by the entry shows the natural chain unless it says otherwise.
UniProt P01031: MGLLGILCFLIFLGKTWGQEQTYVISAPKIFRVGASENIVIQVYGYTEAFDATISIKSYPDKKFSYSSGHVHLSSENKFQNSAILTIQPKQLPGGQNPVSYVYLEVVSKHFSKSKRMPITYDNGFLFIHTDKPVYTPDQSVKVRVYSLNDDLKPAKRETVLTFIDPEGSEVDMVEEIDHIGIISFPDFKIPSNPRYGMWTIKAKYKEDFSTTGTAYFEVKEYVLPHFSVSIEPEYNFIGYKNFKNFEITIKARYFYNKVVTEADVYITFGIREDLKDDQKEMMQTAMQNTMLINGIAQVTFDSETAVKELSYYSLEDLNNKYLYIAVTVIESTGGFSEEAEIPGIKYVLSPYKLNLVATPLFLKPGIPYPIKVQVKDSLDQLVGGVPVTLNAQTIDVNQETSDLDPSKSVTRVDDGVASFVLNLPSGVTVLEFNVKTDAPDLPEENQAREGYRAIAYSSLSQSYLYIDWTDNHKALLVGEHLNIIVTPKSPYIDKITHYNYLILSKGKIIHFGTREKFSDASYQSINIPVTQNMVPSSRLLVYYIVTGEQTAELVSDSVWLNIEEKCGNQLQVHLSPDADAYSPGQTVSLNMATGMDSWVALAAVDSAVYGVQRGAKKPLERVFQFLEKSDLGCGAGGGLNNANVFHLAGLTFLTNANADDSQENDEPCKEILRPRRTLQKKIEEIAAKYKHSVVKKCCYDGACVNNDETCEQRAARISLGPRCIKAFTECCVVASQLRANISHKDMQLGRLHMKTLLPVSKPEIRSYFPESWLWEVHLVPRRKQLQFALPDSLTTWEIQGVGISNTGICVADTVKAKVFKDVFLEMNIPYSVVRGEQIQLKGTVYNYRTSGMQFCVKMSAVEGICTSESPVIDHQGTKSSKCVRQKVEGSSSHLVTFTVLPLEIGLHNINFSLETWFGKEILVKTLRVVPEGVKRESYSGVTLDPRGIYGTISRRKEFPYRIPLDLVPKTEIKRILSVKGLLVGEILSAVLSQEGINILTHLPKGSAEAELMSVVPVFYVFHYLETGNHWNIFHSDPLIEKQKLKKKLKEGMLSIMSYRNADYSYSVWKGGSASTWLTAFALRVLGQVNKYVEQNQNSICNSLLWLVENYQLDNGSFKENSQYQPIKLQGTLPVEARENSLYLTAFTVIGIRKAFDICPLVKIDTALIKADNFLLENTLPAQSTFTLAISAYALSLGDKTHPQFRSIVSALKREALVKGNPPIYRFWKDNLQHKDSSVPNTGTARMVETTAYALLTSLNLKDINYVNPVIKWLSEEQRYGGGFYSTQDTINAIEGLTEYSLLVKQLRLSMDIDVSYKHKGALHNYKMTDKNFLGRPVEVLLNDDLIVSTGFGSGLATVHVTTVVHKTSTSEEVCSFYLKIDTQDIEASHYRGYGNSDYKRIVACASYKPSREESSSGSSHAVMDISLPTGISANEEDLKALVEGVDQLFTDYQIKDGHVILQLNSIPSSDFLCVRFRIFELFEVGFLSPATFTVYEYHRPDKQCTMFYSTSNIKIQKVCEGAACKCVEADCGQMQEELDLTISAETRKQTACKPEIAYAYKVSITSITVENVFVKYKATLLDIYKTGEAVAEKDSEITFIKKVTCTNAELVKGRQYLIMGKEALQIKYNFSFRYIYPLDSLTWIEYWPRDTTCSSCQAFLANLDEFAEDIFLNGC

B1: H4H12164P (antibody, human IgG4, V domains shown)
VH: EVQLVESGGGLVRSGGSLRLSCAASGFTFNRYAMTWVRQAPGKGLEWVSAISGSGSSTYYTDSVKGRFTISRDNSKNSVDLQMHSLRVEDTAIYYCARGTTVTTGYGMDVWGQGTTVTVSS
VL: DIQMTQSPSSLSASVGDRVTFTCQASQDITNSLNWYQQKPGRAPKLLIYDASYLKAGVPSRFSGSGSGTDFTFTISSLQPEDIATYYCQQYDDLPYTFGQGTKLEIK
B2: H4H12167P (antibody, human IgG4, V domains shown)
VH: QVQLVESGGGLVKPGGSLRLSCAASGFTFSDSYMSWIRQAPGKGLEWISYIGSSGNTFYYADSVKGRFTISRDNANNLLYLQMTSLRAEDTAVYYCAREEGDFWSAVDSWGQGTLVTVSS
VL: DIQLTQSPSFLSASVGDRVTITCWASQGISSYLAWYQQKPGKAPKLLIHTASTLQSGVPSRFSGSGSGTEFTLTISNLQPEDFATYYCQQLNSYPFTFGPGTKVDIK
B3: H4H11686N (antibody, V domains shown)
VH: QVQLVESGGGLVKPGGSLRLSCAASGFTFSDYYMSWIRQAPGKGLEWVSYISSSGNTIKYADSMKGRFTISRDNAKKSLFVEMNSLRAEDTAVYYCARYKSSSDYFDHWGQGTLVTVSS
VL: EIVLTQSPATLSLSPGERATLSCRASQSVRSYLAWYQQKPGQAPRLLIYDASNRATAIPARFSGSGSGTDFTLTISSLEPEDLAVYYCQQSGNWPLTFGGGTKVEIK
B4: H4H12169P (antibody, human IgG4, V domains shown)
VH: EVQLVESGGGLAQPGGSLRLSCAASGFTFRSYAMSWVRQAPGKGPEWVSGIGGNGVTTYYADSVKGRFTISRDNSKNTLFLQMNSLRAEDTAVYYCVQGGLGGYFTGYWGQGTLVTVSS
VL: DIQMTQSPSSLSASVGDRVTITCRASQSISTYLNWYQQNPGKAPKLLIFDASSLQSGVPSRFSGSGSGTDFTLTIRGLQPEDFATYYCQQSYSAPLTFGGGTKVEIK
B5: H4H12171P (antibody, human IgG4, V domains shown)
VH: EVQLVESGGGVVRPGGSLRLSCAASGFTFDEYGMTWVRQVPGKGLEWVSGITWNGGFTDYTDSVKGRFTSSRDNAKNSLYLQMNSLRAEDTALYYCARDGYSSSWGAYDIWGQGTMVTVSS
VL: DIQMTQSPSSLSASVGDRVTITCRASQSISTYLNWYQQKPGKAPKLLIYAASSLQSGVPLRFSGSGSGTDFTLTISSLQPEDFASYFCQQSYSTPYTFGQGTKLEIK
B6: H4H12166P7 (antibody, human IgG4, V domains shown)
VH: QVQLQESGPGLVKPSETLSLTCTVSGDSVSSSYWTWIRQPPGKGLEWIGYIYYSGSSNYNPSLKSRATISVDTSKNQFSLKLSSVTAADTAVYYCAREHNVDTTMIFDYWGQGTLVTVSS
VL: AIQMTQSPSSLSASVGDRVTITCRASQGIRNDLGWYQQKPGKAPKLLIYAASSLQSGVPSRFAGRGSGTDFTLTISSLQPEDFATYYCLQDFNYPWHFGQGTKVEIK
B7: H4H12166P8 (antibody, human IgG4, V domains shown)
VH: B6 VH with H99G, T103H
VL: B6 VL with L89H, H97T
B8: H4H12166P10 (antibody, human IgG4, V domains shown)
VH: B6 VH with H99G, F107H
VL: B6 VL
B9: H4H12166P9 (antibody, human IgG4, V domains shown)
VH: B6 VH with H99G, T103H
VL: B6 VL
B10: H4H12163P (antibody, human IgG4, V domains shown)
VH: EVQLVESGGDLVQPGGSLRLSCAASGFTFSSYAMNWVRQGPGKGLEWVSAISGRGDSTYYADSVKGRLTISRDNSKNTLYLQMNSLRAEDTAVYYCVKEGEQLVYWYFDLWGRGTLVTVSS
VL: DIQMTQSPSSLSASVGDRVTITCRASQTISNFLHWYQQKPGKAPKLLIYAASSLQSGVPSRFSGSGSGTDFTLTISSLQPEDFSTYFCQQSYTTPLTFGGGTKVEIK
B11: H4H12175P (antibody, human IgG4, V domains shown)
VH: EVQLVESGGGVVQPGGSLRLSCAASGFTFNDYAMHWVRQAPGKGLEWVSLISGDGGNTYYADSVKGRLTISRDNSKNSLYLQMNSLRTEDTALYYCAKDKGWNFGYFDLWGRGTLVTVSS
VL: DIQMTQSPSSLSTSVGDRVTITCRASQNIDTYLNWYQQKPGKAPKLLIYDASSLQSGVPSRFSGSGSGTDFTLTITSLQPEDFATYYCQQNDNILHPLTFGGGTKVEIK
B12: H4H11683N (antibody, V domains shown)
VH: QVQLVESGGGVVQPGRSLRLSCVASGFTFSSYGIHWVRQAPGKGLEWVAVIWDDGNNINYSDSVKGRFIISRDNSRKTVYLQMNSLRGEDTAVYYCARDAPIAPVPDYWGQGTLVTVSS
VL: DIQMTQSPSTLSASVGDRVTITCRASQSISSWLAWYQQKPGKAPKLLIYKASSLDTGVPSRFSGSGSGTEFTLTISSLQPDDFATYYCQQYNTYSYTFGLGTKLEIK
B13: H4H12159P (antibody, human IgG4, V domains shown)
VH: QVQLVESGGGVVQPGRSLRLSCGASGFTFSTYGMHWVRQAPGKGLEWVAVIWDDGNNKYYADSVKGRFTISRDNSKNTLYLQMNSLRAEDTAVYYCARDSEVAPVGDYWGQGTLVTVSS
VL: B12 VL with T22I, S30N, S31R, D55E, T56S, T85A, T93D, L100Q
B14: H4H12161P (antibody, human IgG4, V domains shown)
VH: EVQLVESGGDLVQPGGSLRLSCAASGFTFSDHYMDWVRQAPGKGLDWIGRIRNKANAYNTEYAASVRGRFTISRDDSQNLLYLQMNSLKTDDTAVYYCVRVWNYAYFAMDVWGQGTTVTVSS
VL: DIQMTQSPSSLSASVGDRVTITCRSSQNIGIFLNWYQQKPGEAPNLLISAASSLHSGVPSRFSGSGSGTDFTLTIGSLQPEDFATYYCQQTYNTIFTFGPGTKVDIK
B15: H4H12168P (antibody, human IgG4, V domains shown)
VH: QVQLVESGGGVVQPGGSLRLSCAASGFTFGGHAMHWVRQAPGKGLEWLAVISSDGSNKQYADSVKGRFTISRDNPKNTLYLQMNSLRVGDTAIYYCAKEVAPRYYYYGLDVWGQGTTVTVSS
VL: DIQMTQSPSSLSASVGDRVTITCRASQDISNFLAWYQQKPGKVPKLLIYTASTLQSGVPSRFSGSGSGTDFTLTVSSLQPEDVATYYCQKYAGALTFGPGTKVDIK

biological target: monkey C5-mmh (monkey); assay: SPR (Biacore T200), antibody captured on anti-human Fc; 25 C and 37 C

binding, binds:
B1, B2, B3, B4, B5, B6, B7, B8, B9, B10, B11, B12, B13

biological target: human C5 (human) (UniProt P01031); assay: as above

binding, binds:
B1, B2, B3, B4, B5, B6, B7, B8, B9, B14, B15, B10, B11, B12, B13
